Data taken from ChEMBL document CHEMBL3988442, “University of Dundee, Small-Polar-MMV Screening Library” (2021).

Sequences of proteins named here, by UniProt entry; tags and fusion partners are left off. Residues count along the entry.
UniProt Q8IDJ8, 1-583: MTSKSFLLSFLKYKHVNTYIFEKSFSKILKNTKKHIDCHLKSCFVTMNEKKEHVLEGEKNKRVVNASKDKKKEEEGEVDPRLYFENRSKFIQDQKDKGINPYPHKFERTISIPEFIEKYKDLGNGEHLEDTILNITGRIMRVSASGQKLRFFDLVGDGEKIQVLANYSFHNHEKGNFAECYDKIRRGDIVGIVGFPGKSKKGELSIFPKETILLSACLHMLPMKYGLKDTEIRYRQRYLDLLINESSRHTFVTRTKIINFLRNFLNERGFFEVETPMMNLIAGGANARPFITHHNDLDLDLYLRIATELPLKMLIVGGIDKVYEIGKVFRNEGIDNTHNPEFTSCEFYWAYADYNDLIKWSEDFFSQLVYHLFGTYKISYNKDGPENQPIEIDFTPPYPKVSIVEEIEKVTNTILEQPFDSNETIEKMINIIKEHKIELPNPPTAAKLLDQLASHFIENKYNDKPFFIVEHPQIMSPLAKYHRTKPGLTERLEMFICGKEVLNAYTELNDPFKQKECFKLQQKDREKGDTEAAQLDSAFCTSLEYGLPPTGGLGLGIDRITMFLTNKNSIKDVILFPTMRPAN
UniProt A4I591, 1-473: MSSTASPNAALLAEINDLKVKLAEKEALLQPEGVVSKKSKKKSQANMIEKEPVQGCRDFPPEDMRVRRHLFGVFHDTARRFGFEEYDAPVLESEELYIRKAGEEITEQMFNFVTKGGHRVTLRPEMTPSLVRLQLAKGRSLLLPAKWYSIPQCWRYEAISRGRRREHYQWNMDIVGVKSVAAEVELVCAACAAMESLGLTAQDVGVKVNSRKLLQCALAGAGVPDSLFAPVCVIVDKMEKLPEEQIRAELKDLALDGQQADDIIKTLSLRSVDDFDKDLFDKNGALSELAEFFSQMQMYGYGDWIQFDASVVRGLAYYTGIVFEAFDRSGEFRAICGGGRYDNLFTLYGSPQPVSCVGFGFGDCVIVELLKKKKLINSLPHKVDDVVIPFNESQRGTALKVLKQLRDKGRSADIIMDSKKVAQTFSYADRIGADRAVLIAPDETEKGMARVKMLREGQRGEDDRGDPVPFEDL
UniProt Q4DA54, 1-478: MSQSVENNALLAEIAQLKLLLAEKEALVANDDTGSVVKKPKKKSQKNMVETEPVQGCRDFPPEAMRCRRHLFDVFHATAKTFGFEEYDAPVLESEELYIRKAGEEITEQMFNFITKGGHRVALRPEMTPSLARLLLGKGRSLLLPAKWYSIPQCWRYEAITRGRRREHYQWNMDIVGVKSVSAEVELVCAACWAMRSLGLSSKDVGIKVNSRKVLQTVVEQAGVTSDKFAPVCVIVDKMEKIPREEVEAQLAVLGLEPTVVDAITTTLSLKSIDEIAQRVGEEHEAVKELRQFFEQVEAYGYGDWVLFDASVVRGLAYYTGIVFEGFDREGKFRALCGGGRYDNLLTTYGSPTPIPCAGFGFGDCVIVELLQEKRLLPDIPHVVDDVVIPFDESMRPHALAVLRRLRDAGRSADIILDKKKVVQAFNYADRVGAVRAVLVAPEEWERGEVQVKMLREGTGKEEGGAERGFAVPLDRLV
UniProt P9WPC5, whole entry: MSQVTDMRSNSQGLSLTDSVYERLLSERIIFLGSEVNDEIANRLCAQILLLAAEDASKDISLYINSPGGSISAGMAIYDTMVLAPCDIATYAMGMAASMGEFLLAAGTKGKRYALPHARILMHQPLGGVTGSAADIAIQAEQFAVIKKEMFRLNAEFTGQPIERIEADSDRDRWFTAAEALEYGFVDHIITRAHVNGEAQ
UniProt P9WPC3, whole entry partner: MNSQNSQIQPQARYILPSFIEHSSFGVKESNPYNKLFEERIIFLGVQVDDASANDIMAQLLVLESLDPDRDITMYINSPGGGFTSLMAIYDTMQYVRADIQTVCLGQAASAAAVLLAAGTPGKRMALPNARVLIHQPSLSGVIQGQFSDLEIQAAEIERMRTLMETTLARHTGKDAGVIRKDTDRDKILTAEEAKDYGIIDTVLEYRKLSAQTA

A: 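Lysine-tRNA ligase, Plasmodium falciparum 3D7 (UniProt Q8IDJ8). Enzyme assay of the cytosolic lysyl-tRNA synthetase in 384-well plates, read by luminescence. Compounds at 30 µM. Direction is inferred from only a few compounds that gave an IC50; most scored high, so higher reads as stronger inhibition. Of about 69,000 compounds tested this way, about 49 (0.071%) reached 50% or more in at least one test.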
B: 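Enzyme assay of histidyl-tRNA synthetase; the read-out is not stated. Target: Histidine-tRNA ligase, Leishmania infantum (UniProt A4I591). Compounds at 30 µM. Higher reads as stronger inhibition (inferred: compounds with an IC50 in retests scored well above the rest). The assay is labelled LdHisRS but filed under L. infantum. Of about 69,000 compounds tested this way, about 410 (0.6%) reached 50% or more in at least one test.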
C: 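Enzyme assay of histidyl-tRNA synthetase; the read-out is not stated. Target: Histidine-tRNA ligase, Trypanosoma cruzi CL Brener (UniProt Q4DA54). Compounds at 30 µM. Direction is inferred from retests: higher values go with stronger inhibition. Size under these conditions: about 69,000 compounds, about 31 of them at 50% or above in at least one test.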
D: 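Cell assay of Leishmania donovani living inside macrophages; the read-out is not stated. Compounds at 30 µM. Direction is inferred from retests: higher values go with stronger inhibition. Size under these conditions: about 69,000 compounds, about 1,000 of them at 50% or above in at least one test.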
E: 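ClpP1P2, Mycobacterium tuberculosis (UniProt P9WPC5 and UniProt P9WPC3). Protease assay of ClpP1P2, read by the AMC dye that it sets free. Concentration: 50 µM. Direction is inferred from only a few compounds that gave an IC50; most scored high, so higher reads as stronger inhibition. Most other retested compounds had strongly negative values. Of about 69,000 compounds tested this way, about 10 (0.015%) reached 50% or more in at least one test.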

Values are the deposited “Percent Effect”, in %.
How 0% and 100% were set is not recorded. Most values in the screen are low, and negative values occur.
The compounds are a random part of those screened.
A dash means the value is not listed here; it may have been measured.

Compound	A	B	C	D	E
Cc1nnc(SCC(=O)c2cc3c(cc2Cl)NC(=O)C3)s1	4.416%	2.632%	2.439%	9.678%	-11.77%
CC(C)c1ccc(OCC(=O)N2CCOCC2c2ncon2)cc1 (stereo unspecified)	0.7411%	9.649%	-0.8721%	32.18%	-22.49%
CN(C)Cc1cnc2n1CCN(C(=O)Cc1ccc(F)cc1)CC2	17.38%	13.79%	7.595%	-	0.4979%
c1cnnc(N2CCCC(NCc3nnc(-c4ccco4)o3)C2)c1 (stereo unspecified)	7.947%	4.255%	7.634%	25.28%	31.77%
O=C(O)C(F)(F)F.O=C(O)C(F)(F)F.[H][C@@]12CCCO[C@]1([H])[C@H](OCCCn1cccn1)CN2C1CCOCC1	-	-	-	26.52%	-
Cc1nnc2n1CCN(C(=O)c1ccn(-c3cccc(F)c3)n1)C2	3.545%	18.09%	9.045%	-15.72%	5.809%
CN(C)c1ccc(C(=O)N2CCCCC2CC(N)=O)c(F)c1 (stereo unspecified)	-1.39%	9.948%	1.604%	12.99%	-6.154%
CN(CCO)CC1COCCN1C(=O)CCC1CCCC1 (stereo unspecified)	-0.904%	26.83%	9.135%	-	-7.09%
CCC(C)NS(=O)(=O)c1ccc(C(=O)NC2(C#N)CCC2)cc1 (stereo unspecified)	-3.54%	26.83%	8.173%	-15.8%	-3.726%
Cc1cc(CN(C)CC2(O)CCCN(CCC3CCCCC3)C2=O)no1 (stereo unspecified)	-0.8574%	0%	13.79%	-65.43%	9.161%
c1coc(CNc2ncc3c(n2)C2(CCNC2)COC3)c1 (stereo unspecified)	6.19%	17.95%	6.952%	-	-4.633%
COc1cccc(CNC(=O)C(C)N2CC(n3nc(C)cc3C)C2)c1 (stereo unspecified)	-0.04778%	13.95%	5.952%	29.29%	-5.887%
Cc1cccc(C)c1NC(=O)c1cc(S(N)(=O)=O)c(C)o1	-1.431%	20.21%	4.04%	-23.78%	-1.219%
Cc1cnn(CC2CCCN2C(=O)Cc2cn3ccsc3n2)c1 (stereo unspecified)	7.238%	20.51%	6.18%	8.642%	-3.493%
COCCC1(C(=O)O)CCCN(Cc2ccccc2OCCO)C1 (stereo unspecified)	4.957%	0%	-0.5618%	24.5%	-5.757%
COCCN1CCCC2(CCN(c3nc(C)nc4ccsc34)C2)C1=O (stereo unspecified)	5.193%	19.17%	5.263%	36.72%	-3.694%
O=C(NCC1CC1)C1CCC2(CCN(C(=O)c3ccncc3)CC2)O1.O=C(O)C(F)(F)F (stereo unspecified)	-	-	-	-1.289%	-
O=C(O)C(F)(F)F.[H][C@@]12CCCO[C@]1([H])[C@H](OCC1CCCC1)CN2c1nnc(C)s1	-	-	-	28.38%	-
CNC(=O)Cn1ccc2ccc(NC(=O)C(C)C)cc21	-2.131%	16.67%	8.333%	4.328%	-14.27%
COc1cccc(N2CCN(CCC(=O)NC3CCCC3)CC2)c1	2.147%	22.86%	3.261%	20.22%	-12.7%
CC(C)Oc1cccc(C(=O)C2CCCN(C(=O)c3ccoc3)C2)c1 (stereo unspecified)	-0.685%	5.66%	-0.8333%	8.58%	-24.52%
CC[C@H](C)[C@H](NC(=O)c1ccc(-n2cnnn2)cc1)C(=O)OC	-3.056%	-3.261%	0%	-11.36%	-0.8389%
O=C1CC(CNc2cncc(Cl)n2)c2ccccc2N1 (stereo unspecified)	1.198%	7.042%	12.71%	11.56%	5.779%
CN1C(=O)C(C)(C)COc2cc(NS(=O)(=O)Cc3ccccc3)ccc21	2.399%	23.08%	3.306%	28.07%	7.628%
Cc1nc(C)n(CCNC(=O)C2(C)CC(c3ccccc3)=NO2)n1 (stereo unspecified)	0.6294%	12.77%	6.977%	14.97%	-5.249%
O=C1N(c2cccc(F)c2)Cc2nc(=O)n(Cc3ccccc3Cl)n21	3.884%	11.96%	2.97%	25.55%	-6.979%
Cc1cnn(CC2CCCCN2C(=O)c2nccnc2N)c1 (stereo unspecified)	1.233%	4.425%	2.041%	12.58%	-51.52%
Cc1ccc(OCCN(C)Cc2nc3c(cnn3C)c(=O)[nH]2)cc1	1.992%	11.61%	2.89%	20.92%	-36.43%
Cn1cc(C(C)(O)CNc2ccccn2)cn1 (stereo unspecified)	5.815%	0%	-0.5618%	22.43%	10.96%
Cn1ncc2c1CCCC2NCc1ccc(OCc2cccnc2)cc1 (stereo unspecified)	3.051%	20.48%	10.45%	5.569%	-4.186%

Some entries from above, unchanged:

Compound,A,B,C,D,E
Cc1cnn(CC2CCCN2C(=O)Cc2cn3ccsc3n2)c1 (stereo unspecified),7.238%,20.51%,6.18%,8.642%,-3.493%
COc1cccc(N2CCN(CCC(=O)NC3CCCC3)CC2)c1,2.147%,22.86%,3.261%,20.22%,-12.7%
O=C(NCC1CC1)C1CCC2(CCN(C(=O)c3ccncc3)CC2)O1.O=C(O)C(F)(F)F (stereo unspecified),-,-,-,-1.289%,-
Cc1cc(CN(C)CC2(O)CCCN(CCC3CCCCC3)C2=O)no1 (stereo unspecified),-0.8574%,0%,13.79%,-65.43%,9.161%